# Source: PubChem BioAssay AID493014 (National Center for Advancing Translational Sciences (NCATS), 2011)
# This is one part of the list. The main result of the screen is listed elsewhere. These columns were measured beside it and carry no call. The list favours compounds with an active or inconclusive main result. Words in brackets tell the shape of the fitted curve; partial curves, single points and poor fits give uncertain potencies.
# Experiment: qHTS Assay to Find Inhibitors of Chronic Active B-Cell Receptor Signaling
# Settings: ABC-DLBCL IkBa-CBG/CBR reporter, luminescence ratio (green luciferase fused to IkBa over red control in TMD8 lymphoma cells), 4 h
# Procedure, shortened: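 Cell line TMD8 (human ABC DLBCL), stably expressing tet-inducible CBG68-IkBa fusion and CBR; IMDM/0.5% FBS; cpd up to 46 uM; dox induction, 4 h, 37C/5% CO2; dual luminescence; green/red ratio; MG132 control.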
# [1] = measured here: CBR red luminescence, cell number
# [2] = measured here: IkBa-CBG green luminescence
Structure (SMILES),AC50 [1],AC50 [2]
COc1ccc2sc(NC(=O)c3ccco3)nc2c1,"3.16 µM [falling, full curve]",
O=C(O)c1cc2c(s1)-c1ccccc1OC2,"7.08 µM [falling, partial curve]",
COc1ccc(-n2nnnc2CNC(=O)c2ccc(S(=O)(=O)N3CCOCC3)cc2)cc1,"2.59 µM [rising, partial curve, poor fit]",
O=C(Nc1ccc(Cl)c(S(=O)(=O)N2CCOCC2)c1)c1ccc(OCC2CCCO2)cc1 (stereo not given),"1.26 µM [falling, full curve, poor fit]",
Cc1cc(C)nc(SCc2csc(-c3ccccc3)n2)n1,"0.82 µM [rising, full curve, poor fit]",
Cc1ccc(C(=O)Nc2nc3ccccc3[nH]2)cc1,"1 µM [falling, full curve, poor fit]",
O=C(NCc1cccnc1)Nc1cc(Cl)cc(Cl)c1,"35.5 µM [falling, partial curve, poor fit]",
CSc1nc2cc3c(cc2n1C(=O)c1ccc(C)cc1)OCCO3,"11.2 µM [falling, partial curve, poor fit]",
Cc1ccccc1-c1nc(S(=O)(=O)c2ccc(Br)cc2)c(NCc2cccnc2)o1,"13 µM [falling, partial curve, poor fit]",
O=C(CN1CCN(S(=O)(=O)c2ccc(Br)cc2)CC1)Nc1ccc(F)cc1F,"18.4 µM [falling, partial curve]",
O=c1/c(=C\c2ccc3c(c2)OCO3)sc2n1CCCN=2,"17.8 µM [falling, partial curve]",
O=C(C(=O)N1CCN(c2cccc(Cl)c2)CC1)c1c[nH]c2ccccc12,"2.24 µM [falling, full curve]",
Cc1ccc(S(=O)(=O)CCc2nc3ccccc3s2)cc1,"29.1 µM [rising, single point]",
CCN1C(=O)[C@@H]2[C@@H](c3ccc(-c4ccc(Cl)c(Cl)c4)c(OC)c3)N3CCC[C@@]3(C(=O)OC)[C@@H]2C1=O,"8.2 µM [falling, partial curve]",
CCCCCC(=O)c1c(C)[nH]c(C(=O)OCC)c1C,"16.4 µM [rising, partial curve]","18.4 µM [falling, single point]"
Cn1c(=O)n(Cc2ccccc2)c(=O)c2c1nc1n2CCCN1CCc1ccccc1,"25.9 µM [falling, single point]",
C=C(C)C1(O)OC(=O)C=C1OC (stereo not given),"7.94 µM [falling, partial curve, poor fit]",
Cn1c(-c2ccc(-c3ccccc3)cc2)c[nH]c1=S,"5.62 µM [rising, full curve]",
CCN(CC)S(=O)(=O)c1cc(NC(=O)Cn2ncc(Cl)c(Cl)c2=O)ccc1C,"8.91 µM [falling, partial curve, poor fit]",
CCCn1c(=O)c(C(=O)NCc2ccccc2Cl)c(O)c2ccccc21,"2.51 µM [rising, full curve, poor fit]",
CC(CCc1ccccc1)NC(=O)COC(=O)c1cc(NS(=O)(=O)c2ccc(Cl)c([N+](=O)[O-])c2)ccc1O (stereo not given),"16.4 µM [falling, partial curve, poor fit]",

Structure (SMILES),AC50 [1],AC50 [2]
O=C(N/N=C/c1cccc(OC2CSC2)c1)c1ccccc1O,"2.24 µM [falling, full curve]",
CCOC(=O)C1CCN(S(=O)(=O)c2ccc(Cl)cc2OC)CC1,"29.1 µM [rising, single point]",
CSc1ccc(S(=O)(=O)NCc2ccc(C)cc2)cc1,"1.64 µM [rising, partial curve, poor fit]",
O=C(O)c1ccc(NCc2nc3ccccc3n2Cc2ccccc2F)cc1,"10 µM [falling, partial curve]",
Cc1ccc(NC(=O)c2cccc3cccnc23)cc1,"14.1 µM [falling, partial curve, poor fit]",
COc1cc(C(=O)CSc2nncn2C)cc(OC)c1OC,"0.82 µM [rising, full curve, poor fit]",
Cc1nc2n(n1)C(c1ccccc1)C1=C(CC(c3ccco3)CC1=O)N2 (stereo not given),"9.2 µM [falling, partial curve, poor fit]",
CCOc1ccc(OCC)c(NC(=O)CSc2nnc(-c3cccnc3)o2)c1,"32.6 µM [rising, partial curve, poor fit]","6.51 µM [rising, partial curve, poor fit]"
N#C/C(=C\c1ccc2c(c1)OCCO2)C(=O)NC1CCCCC1,"0.259 µM [falling, full curve, poor fit]",
COC(=O)c1sc(NC(=O)COc2ccccc2C)nc1C,"22.4 µM [falling, partial curve, poor fit]",
CCOc1ccc(S(=O)(=O)N(CC(=O)Nc2cc(C)on2)Cc2ccccc2Cl)cc1,"25.1 µM [falling, single point]",
CN1CCN(C(=O)c2ccc(Oc3ccc([N+](=O)[O-])cc3)cc2)CC1,"5.62 µM [falling, single point]",
O=C(c1ccco1)N1CCCC(Nc2ccc3c(c2)OCCO3)C1 (stereo not given),"35.5 µM [falling, single point]",
CCOc1ccccc1Nc1nnc(SCC(=O)Nc2nc(-c3ccc(OC)cc3)cs2)s1,"35.5 µM [falling, partial curve, poor fit]",
COc1cc(C(C[N+](=O)[O-])c2c(N)n(C)c(=O)n(C)c2=O)ccc1O (stereo not given),"8.91 µM [falling, partial curve, poor fit]","35.5 µM [falling, partial curve, poor fit]"
COc1ccc(C(CNC(=O)c2cccc(S(=O)(=O)N3CCc4ccccc43)c2)N(C)C)cc1 (stereo not given),"29.1 µM [falling, partial curve, poor fit]",
Cc1ccnc(NC(=O)c2cccs2)c1,"3.16 µM [falling, partial curve, poor fit]",
Cn1c(C(=O)N2CCN(Cc3ccc4c(c3)OCO4)CC2)cc2c(=O)n(C)c3ccccc3c21,"0.517 µM [rising, partial curve, poor fit]",
Cc1nc2cc3sc(C)nc3cc2s1,"2.82 µM [falling, partial curve, poor fit]",
Cc1oc2c(O)c(O)ccc2c(=O)c1-c1ccccc1,"6.31 µM [rising, partial curve, poor fit]",
O=C1[C@@H]2[C@H]3CC[C@H](C3)[C@@H]2C(=O)N1O,"14.1 µM [rising, single point]",

# Gathered by group: the entries above containing fluorine
Structure (SMILES),AC50 [1],AC50 [2]
O=C(CN1CCN(S(=O)(=O)c2ccc(Br)cc2)CC1)Nc1ccc(F)cc1F,"18.4 µM [falling, partial curve]",
O=C(O)c1ccc(NCc2nc3ccccc3n2Cc2ccccc2F)cc1,"10 µM [falling, partial curve]",

# 3 records drawn at random from the list so far, as already listed:
Structure (SMILES),AC50 [1],AC50 [2]
Cc1nc2cc3sc(C)nc3cc2s1,"2.82 µM [falling, partial curve, poor fit]",
CC(CCc1ccccc1)NC(=O)COC(=O)c1cc(NS(=O)(=O)c2ccc(Cl)c([N+](=O)[O-])c2)ccc1O (stereo not given),"16.4 µM [falling, partial curve, poor fit]",
O=c1/c(=C\c2ccc3c(c2)OCO3)sc2n1CCCN=2,"17.8 µM [falling, partial curve]",

# Continuation.

Structure (SMILES),AC50 [1],AC50 [2]
COc1ccc(N2CCN(C(=O)c3ccc(F)cc3)CC2)c([N+](=O)[O-])c1,"35.5 µM [falling, single point]",
COCCn1c(SCC(=O)Nc2sccc2C(N)=O)nc2cc(Cl)ccc2c1=O,"4.47 µM [falling, partial curve, poor fit]",
c1ccc(-c2nccnc2-c2ccccc2)cc1,"35.5 µM [falling, single point]",
COc1ccc(C(=O)Nn2c(SCC(=O)NC3CCCC3)nc3ccccc3c2=O)cc1,"4.47 µM [falling, partial curve]",
CCC(C)NC(=O)Cn1cc2c(n1)CCC(C)C2 (stereo not given),"8.2 µM [rising, partial curve, poor fit]",
O=C(NC1CCCCC1)c1cc(-c2cccs2)on1,"0.501 µM [falling, full curve]",
O=C(/C=C/c1cccc(F)c1)Nc1cc(S(=O)(=O)N2CCOCC2)ccc1N1CCCC1,"25.9 µM [rising, single point]",
COc1ccc(C(=O)n2nc(-c3ccco3)nc2N)cc1,"4.61 µM [falling, partial curve, poor fit]",
Cn1c2ccccc2c2cc(C(=O)OCC(=O)N3CC(=O)Nc4ccccc43)sc21,"11.2 µM [falling, partial curve]",
O=C(NNC(=O)c1ccccc1F)c1cccs1,"35.5 µM [falling, single point]",
CC(C)CCN1C(=O)c2ccc(C(=O)Nc3ccccc3C(=O)O)cc2C1=O,"14.1 µM [falling, partial curve, poor fit]","20 µM [rising, partial curve, poor fit]"
CCOC(=O)[C@H]1[C@H]2COc3cc(OC)ccc3[C@@H]2N2C(=O)N(c3ccc(Br)cc3)C(=O)[C@@]12C,"2.82 µM [rising, partial curve, poor fit]",
C[C@H](CO)N1C[C@H](C)[C@@H](CN(C)S(=O)(=O)c2ccc(F)cc2)Oc2ccc(NS(=O)(=O)c3ccccc3)cc2C1=O,"0.58 µM [rising, full curve, poor fit]",
O=C(N/N=C/c1ccc(OC(=O)c2ccco2)cc1)c1ccccn1,"11.2 µM [falling, partial curve, poor fit]",
COC(=O)[C@H](C)NC(=O)Nc1ccc(C)c(C)c1,"18.4 µM [rising, single point]",
O=C(c1ccccc1)N1CCN(Cc2cccc(Oc3ccccc3)c2)CC1,"29.1 µM [falling, single point]",
CC1CCCN(CCOc2ccc3ccccc3c2Br)C1 (stereo not given),"35.5 µM [falling, single point]",
COCCN(CCOC)S(=O)(=O)c1ccc(C(=O)Nc2sc3c(c2C(N)=O)CCCCC3)cc1,"1.03 µM [falling, full curve]",
O=C(CNc1cccc(S(=O)(=O)N2CCCC2)c1)Nc1cccc(F)c1,"29.1 µM [falling, single point]",
